From patent US20180282418A1

Legend:
[1] = molecular target: HA-tagged CLEC14A with the C-type lectin domain (CTLD) deleted; experiment: far Western blot of HEK293T lysates with MMRN2 protein lysate, non-reduced
[2] = molecular target: HA-tagged CLEC14A with the sushi domain deleted; experiment: as above

B1: full-length human MMRN2 with a His tag overexpressed in HEK293T cells (ligand, not shown: small tags and cut ends)
chain: QASSTSLSDLQSSRTPGVWKAEAEDTGKDPVGRNWCPYPMSKLVTLLALCKTEKFLIHSQQPCPQGAPDCQKVKVMYRMAHKPVYQVKQKVLTSLAWRCCPGYTGPNCEHHDSMAIPEPADPGDSHQEPQDGPVSFKPGHLAAVINEVEVQQEQQEHLLGDLQNDVHRVADSLPGLWKALPGNLTAAVMEANQTGHEFPDRSLEQVLLPHVDTFLQVHFSPIWRSFNQSLHSLTQAIRNLSLDVEANRQAISRVQDSAVARADFQELGAKFEAKVQENTQRVGQLRQDVEDRLHAQHFTLHRSISELQADVDTKLKRLHKAQEAPGTNGSLVLATPGAGARPEPDSLQARLGQLQRNLSELHMTTARREEELQYTLEDMRATLTRHVDEIKELYSESDETFDQISKVERQVEELQVNHTALRELRVILMEKSLIMEENKEEVERQLLELNLTLQHLQGGHADLIKYVKDCNCQKLYLDLDVIREGQRDATRALEETQVSLDERRQLDGSSLQALQNAVDAVSLAVDAHKAEGERARAATSRLRSQVQALDDEVGALKAAAAEARHEVRQLHSAFAALLEDALRHEAVLAALFGEEVLEEMSEQTPGPLPLSYEQIRVALQDAASGLQEQALGWDELAARVTALEQASEPPRPAEHLEPSHDAGREEAATTALAGLARELQSLSNDVKNVGRCCEAEAGAGAASLNASLDGLHNALFATQRSLEQHQRLFHSLFGNFQGLMEANVSLDLGKLQTMLSRKGKKQQKDLEAPRKRDKKEAEPLVDIRVTGPVPGALGAALWEAGSPVAFYASFSEGTAALQTVKFNTTYINIGSSYFPEHGYFRAPERGVYLFAVSVEFGPGPGTGQLVFGGHHRTPVCTTGQGSGSTATVFAMAELQKGERVWFELTQGSITKRSLSGTAFGGFLMFKT
**Q.** Which results are given for B1?
**A.** binding [1]: no binding; binding [2]: no binding

Results are given in words; binding and its absence hold for the method and conditions named. Tags and fused reporters may be left off the sequences shown.
